Patent US20230045791A1
Results are given in words; binding and its absence hold for the method and conditions named. Some entries that bind do so weakly or less than the wild type.

Chains of the proteins cited; added tags and fusions are not shown. Lines headed by an entry give the natural chain unless they say otherwise; changes in a name come on top. A line that says so, or that is headed by a name, gives the form on record, which may keep a tag or linker. Residues count along the entry.
UniProt P20333: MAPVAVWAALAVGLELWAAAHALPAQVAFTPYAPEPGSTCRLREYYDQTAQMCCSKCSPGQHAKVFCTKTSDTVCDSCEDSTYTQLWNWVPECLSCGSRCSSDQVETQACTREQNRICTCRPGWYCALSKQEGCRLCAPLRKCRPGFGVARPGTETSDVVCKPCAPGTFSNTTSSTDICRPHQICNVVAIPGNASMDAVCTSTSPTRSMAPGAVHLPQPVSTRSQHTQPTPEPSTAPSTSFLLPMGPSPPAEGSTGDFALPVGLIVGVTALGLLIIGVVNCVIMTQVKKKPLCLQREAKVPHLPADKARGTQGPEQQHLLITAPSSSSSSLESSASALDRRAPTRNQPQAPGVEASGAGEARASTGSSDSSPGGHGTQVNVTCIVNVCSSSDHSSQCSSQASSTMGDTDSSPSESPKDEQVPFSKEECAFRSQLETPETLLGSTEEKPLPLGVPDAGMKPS
human TNFR2 on T cells and NK cells of the humanized TNFR2 knock-in (KI) mouse: residues 23-461 of P20333
His-tagged recombinant human TNFR2: residues 23-257 of P20333
rhesus monkey TNFR2 expressed on CHO cells (CHO.mkHFB3) (F7GUU0, form named): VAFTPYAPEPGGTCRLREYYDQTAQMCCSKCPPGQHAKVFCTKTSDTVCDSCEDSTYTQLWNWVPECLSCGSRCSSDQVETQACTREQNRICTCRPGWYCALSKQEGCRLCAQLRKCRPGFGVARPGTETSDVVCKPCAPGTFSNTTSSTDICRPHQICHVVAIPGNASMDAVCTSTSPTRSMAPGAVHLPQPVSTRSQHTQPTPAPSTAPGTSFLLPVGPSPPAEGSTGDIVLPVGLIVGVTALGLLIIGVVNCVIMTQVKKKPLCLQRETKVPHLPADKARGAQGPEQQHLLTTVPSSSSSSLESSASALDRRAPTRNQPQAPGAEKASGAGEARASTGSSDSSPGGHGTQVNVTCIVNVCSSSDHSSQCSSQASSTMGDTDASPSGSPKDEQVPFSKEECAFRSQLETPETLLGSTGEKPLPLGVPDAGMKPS

How the values were obtained:
[1] = target: human TNFR2 on T cells and NK cells of the humanized TNFR2 knock-in (KI) mouse (human) (UniProt P20333); experiment: ex vivo binding to CD8 T cells of the TNFR2 KI mouse; data not shown
[2] = target: rhesus monkey TNFR2 expressed on CHO cells (CHO.mkHFB3) (rhesus monkey) (UniProt F7GUU0); experiment: flow cytometry on CHO cells expressing rhesus monkey TNFR2 (CHO.mkHFB3), anti-human Fc-AF647 detection
[3] = target: human TNFR2 on T cells and NK cells of the humanized TNFR2 knock-in (KI) mouse (human) (UniProt P20333); experiment: ex vivo binding to CD3 T cells of humanized TNFR2 KI mice, single dose of 200 nM antibody; data not shown
[4] = target: recombinant cynomolgus TNFR2 (cynoTNFR2-His) (cynomolgus); experiment: ELISA (FIG. 14A)
[5] = target: recombinant cynomolgus TNFR2 (cynoTNFR2-His) (cynomolgus); experiment: ELISA on recombinant cynoTNFR2-His (FIG. 14A)
[6] = target: His-tagged recombinant human TNFR2 (human) (UniProt P20333); experiment: ELISA (FIG. 14A)
[7] = target: His-tagged recombinant human TNFR2 (human) (UniProt P20333); experiment: ELISA on recombinant hTNFR2-His (FIG. 14A)
[8] = target: human TNFR2 expressed on cells (CHO.hHFB3 / CHO.hTNFR2 cells; primary human T cells) (human) (UniProt P20333); experiment: flow cytometry on CHO.hHFB3 cells (FIG. 12B)
[9] = target: human TNFR2 expressed on cells (CHO.hHFB3 / CHO.hTNFR2 cells; primary human T cells) (human) (UniProt P20333); experiment: flow cytometry on CHO.hTNFR2 cells (FIG. 12A)
[10] = target: human TNFR2 expressed on cells (CHO.hHFB3 / CHO.hTNFR2 cells; primary human T cells) (human) (UniProt P20333); experiment: flow cytometry on CHO cells expressing human TNFR2 (FIG. 12A)
[11] = target: human TNFR2 on T cells and NK cells of the humanized TNFR2 knock-in (KI) mouse (human) (UniProt P20333); experiment: in vivo TNFR2 receptor occupancy by FACS on tumor-infiltrating leukocytes (FIG. 25A)
[12] = target: human TNFR2 on T cells and NK cells of the humanized TNFR2 knock-in (KI) mouse (human) (UniProt P20333); experiment: in vivo TNFR2 receptor occupancy by FACS on selected peripheral blood cells (FIG. 25B)
[13] = target: human TNFR2 on T cells and NK cells of the humanized TNFR2 knock-in (KI) mouse (human) (UniProt P20333); experiment: in vivo TNFR2 receptor occupancy by FACS on tumor and blood leukocytes of MC38-bearing humanized TNFR2 KI mice

Measured: binding

B1: HFB3-18-hG1 (mouse monoclonal antibody) (antibody, human IgG1, kappa, V domains shown)
VH: EVKLEESGGGLVQPGGSMKLSCAASGFTFSDAWMDWVRQSPEKGLEWVAEVRNKANNHATYYAESVKGRFTISRDDSKSSVYLQMNSLRAEDTGIYYCTRSVGGYGTTYWYFDVWGTGTTVTVSS
VL: DIVMTQSPSSLSVSAGEKVTMSCKSSQNLLNSGNQKNYLAWYQQKPGQPPKLLIFGASTRESGVPDRFTGSGSGTDFTLTISSVQAEDLAVYYCQSEHSYPYTFGGGTKLEIKR
binds: [1] | [2] | [3]

B2: HFB3-1hz6-hG1 (humanized monoclonal antibody) (antibody, V domains shown)
VH: QVQLVQSGAELKKPGASVKVSCKASSYSFTDYNMNWVRQAPGQSLEWMGIIFPKYGTTSYAQKLQGRVTLTTDTSTSTAYMELRSLRSDDTAVYYCATDGGTWYFDVWGTGTTVTVSS
VL: DIQLTQSPSFLSASVGDRVTITCRASSSVTYMYWYQQKPGKAPKPWIYLTSNLASGVPSRFSGSGSGTEYTLTISSLQPEDAATYYCQQWSSNPPTFGSGTKLEIKR
binds: [4] | [5] | [1] | [3]

B3: HFB3-14hz1c-hG1 (humanized monoclonal antibody) (antibody, V domains shown)
VH: QVQLVQSGAEVKKPGSSVKVSCKASGYTFTDYYMNWVRQAPGQGLEWMGDINPNDGGTTYAQKFQGRVTITADESTSTAYMELSSLRSEDTAVYFCAREGNYYAYDVRVWYFDVWGQGTTVTVSS
VL: DIQMTQSPSSLSASVGDRVTITCGASQDIITYLNWYQQKPGKAVKLLIYSTSSLNSGVPSRFSGSGSGTDFTLTISSLQPEDFATYYCQQYSELPYTFGGGTKVELKR
not listed: [2] | [11] | [12] | [13]
binds: all other assays above

B4: HFB3-18hz1-hG1 (humanized monoclonal antibody) (antibody, V domains shown)
VH: EVQLVESGGGLVQPGGSLKLSCAASGFTFSDAWMDWVRQASGKGLEWVGEVRNKANNHATYYAASVKGRFTISRDDSKNTAYLQMNSLKTEDTAVYYCTRSVGGYGTTYWYFDVWGQGTTVTVSS
VL: DIVMTQSPDSLAVSLGERATINCKSSQNLLNSGNQKNYLAWYQQKPGQPPKLLIFGASTRESGVPDRFSGSGSGTDFTLTISSLQAEDVAVYYCQSEHSYPYTFGQGTKLEIKR
binds: [4] | [5] | [1] | [3]

B5: HFB3-1-hG1 (mouse monoclonal antibody) (antibody, human IgG1, kappa, V domains shown)
VH: EFQLQQSGPELVKPGASVKISCKASSYSFTDYNMNWVKQSNGKSLEWIGIIFPKYGTTSYNQKFKGKATLTVDQSSSTAYMQLNSLTSEDSAVYYCATDGGTWYFDVWGTGTTVTVSS
VL: QIVLTQSPALMSASPGEKVTMTCSASSSVTYMYWYQQKPRSSPKPWIYLTSNLASGVPARFSGSGSGTSYSLTISSMEAEDAATYYCQQWSSNPPTFGSGTKLEIKR
binds: [1] | [11] | [12] | [2] | [3] | [13]
